Laboratory results: patent US10059674B2, “Design, synthesis, and biological evaluation of 1-methyl-1, 4-dihyrdoindeno[1,2-C]pyrazole analogues as potential anticaner agents targeting tubulin colchicine binding site” (ACT PHARMA CO., LTD., priority 2016, dated 2018)

Experiment: in vitro
Conditions: mouse, liver microsomes, pH 7.47

microsomal CLint at 1 µM: 27.9 µL/min/mg
SMILES: CN(C)CCOC(c1ccccc1)c1ccccc1 [diphenhydramine, reference compound]
